The assay has as its target DR_2577 (SlpA), major S-layer protein from Deinococcus radiodurans (Deinococcus radiodurans (endogenous in strain R1, ATCC 13939)) (UniProt Q9RRB6). Description: condition: only harsh denaturation (boiling for 10 min or 6 mM tris-2-carboxy-ethylphosphine) before SDS-PAGE; SDS-PAGE; harsh denaturation: Rotiload and boiling for 10 min, or 6 mM tris-2-carboxy-ethylphosphine at room temperature; polyacrylamide/urea gel; both purified.

These are yes or no findings as the source states them, for the method shown.

B1: DR_2577 (SlpA), major S-layer protein from Deinococcus radiodurans (natural protein, UniProt Q9RRB6 23-1167, looked up)
chain: APVSAPQVPALTDVPAGHWAKDAIDRLVSRGVILGYPDGTFRGTQNLTRYEAAIIIARLLDQMRDGETPAGMTAEDMTALQNAIQELAADLAALGVRVSDLEANAVSKDDFARLEARIEEVAAAGGEQGATEALQGQIDDLTARVDEYDALRADVDDNASSIAALNDLTVLLNQDILDLQDRVSAVEAAQADFVQRSDFDALGGRVTTVETRVETVNNSLTGRIAALERNAFSVKPSLTIGYSVSRTSRNFDVDRLFPLNADGTVANNAFTSGGIDTDTGAQRRDFGDFGNASDPVVAGAAGLYGFADGVSYTVYFTDGSTATFDGLNPADYKVPTGKVIDTTKGRNGFGFNNLARYKEGSTDIGISLGFDTSGQFSQVTSGTGGSLFSTAGRLQVNQIDLNFGLVTGLPSDAYVDTNGNGKKDDGEATGRGTYLGSGGTAAILRDPAGNVYRPVFFRFKNATTQFSVGNNPVIVTLGQQQKFYFSDYVFDNNYDGRGDGFTVTVDGSNVPVIGAWKPQIKGVYGSRSGLDGTAEAGYGVYYRGVRAQITPVGTLTAGIHYAQEGRDMFGAAQNTTSTPSDVTTYGADLHGKAFGVELHSEYATSRVRPNTANAAVQTSNAFYARVATRKDNLAFDLNTPAAKFGNDTFGVSLYDLNYRKIDAGYNNVAGISEYGYGSYSRTSAQNIAYNPDTGVTAPFANLDRQAYTDANNDGTSDRNADGTVVATNTKIGQMGFGVKAAANLGPVAIGGYYDTSTGANGDNANRMTEAGGSAKVAYSIFSLRGTYNTLDSNRPQIYRDAAGTQIIGDAKVRRYAVQADVTPGLGLFVGAYYRDVNVNGVRSTTDRGLLGRGYLASSFEPGVGNNAYRTGLRCADNNFGTGTRDIDGVGGVLNPAVNLDQSRTATCFTSYGVEAGHAGDNANALVKDLFFRVGYSRVYVPTTATATTGDFSGSVTYGDARYDRKVGVANVRLAGSFSTTNTQLDSRPAGTRGAVGLIVRTDPLENVPFRPQFNGQVGYYTADNRVAAGNYNANATKYGAGVVLNDFLLPQTKIGVRYDGYMAQNRQYTPFDGDGTQGYFSDANNNRRTNLNGVYVEGAYQDLIFSYGTYTLSQKDLNGVEYGSGINNGQPARGQTFKISYKVNF
notes: DR_2577 (SlpA), S-layer protein of Deinococcus radiodurans R1; cysteines at residues 896 and 929; Native protein isolated from the bacterium; It infers that the dimers are held by an intermolecular disulfide bond, and only a computer prediction assigns that bond to Cys929
B1: the binding entry is given as “no binding”.

The values above are taken from article PMC4419837, “Purification and characterization of DR_2577 (SlpA) a major S-layer protein from Deinococcus radiodurans” (Frontiers in Microbiology, 2015).
